Experimental data reported in doi:10.1101/2021.12.17.473155.

By UniProt entry, the sequences of proteins in these tests, tags left out.
UniProt O15550: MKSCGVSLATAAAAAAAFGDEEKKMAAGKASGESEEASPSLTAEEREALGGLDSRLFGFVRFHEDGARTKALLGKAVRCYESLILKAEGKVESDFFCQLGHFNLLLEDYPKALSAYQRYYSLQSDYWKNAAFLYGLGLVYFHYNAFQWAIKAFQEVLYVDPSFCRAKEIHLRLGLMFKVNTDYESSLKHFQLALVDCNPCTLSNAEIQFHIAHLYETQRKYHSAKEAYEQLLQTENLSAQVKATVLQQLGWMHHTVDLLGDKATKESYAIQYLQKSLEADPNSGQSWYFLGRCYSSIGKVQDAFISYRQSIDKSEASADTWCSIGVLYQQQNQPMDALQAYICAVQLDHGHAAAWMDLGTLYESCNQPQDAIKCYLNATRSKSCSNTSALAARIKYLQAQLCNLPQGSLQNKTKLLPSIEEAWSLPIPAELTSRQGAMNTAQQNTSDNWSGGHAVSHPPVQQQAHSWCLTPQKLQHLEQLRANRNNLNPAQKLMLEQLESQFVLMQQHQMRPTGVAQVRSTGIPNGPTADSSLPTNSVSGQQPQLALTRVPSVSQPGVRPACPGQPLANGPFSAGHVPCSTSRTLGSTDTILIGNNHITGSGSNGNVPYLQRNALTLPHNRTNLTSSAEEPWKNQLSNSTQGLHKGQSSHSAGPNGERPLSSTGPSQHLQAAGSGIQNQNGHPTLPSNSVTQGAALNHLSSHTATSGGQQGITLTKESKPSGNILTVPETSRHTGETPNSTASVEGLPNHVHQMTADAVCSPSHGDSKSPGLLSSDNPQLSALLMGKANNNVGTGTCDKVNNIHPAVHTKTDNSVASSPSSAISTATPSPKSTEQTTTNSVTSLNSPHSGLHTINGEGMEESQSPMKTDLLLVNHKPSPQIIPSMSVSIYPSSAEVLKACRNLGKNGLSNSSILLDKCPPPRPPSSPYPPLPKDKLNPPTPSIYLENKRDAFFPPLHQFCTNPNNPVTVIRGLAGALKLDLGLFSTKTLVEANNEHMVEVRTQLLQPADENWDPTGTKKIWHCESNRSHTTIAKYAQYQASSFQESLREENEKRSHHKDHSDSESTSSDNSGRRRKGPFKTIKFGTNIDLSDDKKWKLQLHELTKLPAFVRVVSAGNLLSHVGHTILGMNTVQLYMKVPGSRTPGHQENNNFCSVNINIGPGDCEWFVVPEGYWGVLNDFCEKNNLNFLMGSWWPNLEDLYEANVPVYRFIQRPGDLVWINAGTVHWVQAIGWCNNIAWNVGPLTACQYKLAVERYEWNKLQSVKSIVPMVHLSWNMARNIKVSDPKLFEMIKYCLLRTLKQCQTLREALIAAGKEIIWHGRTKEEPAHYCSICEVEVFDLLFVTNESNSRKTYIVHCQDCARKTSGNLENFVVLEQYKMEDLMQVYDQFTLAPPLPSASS

Molecular target: FLAG-UTX (UniProt O15550)
Assay: affinity purification with mass spectrometry

B1: ELMSAN1 (protein, UniProt Q6PJG2 1-1045)
chain: MNLQAQPKAQNKRKRCLFGGQEPAPKEQPPPLQPPQQSIRVKEEQYLGHEGPGGAVSTSQPVELPPPSSLALLNSVVYGPERTSAAMLSQQVASVKWPNSVMAPGRGPERGGGGGVSDSSWQQQPGQPPPHSTWNCHSLSLYSATKGSPHPGVGVPTYYNHPEALKREKAGGPQLDRYVRPMMPQKVQLEVGRPQAPLNSFHAAKKPPNQSLPLQPFQLAFGHQVNRQVFRQGPPPPNPVAAFPPQKQQQQQQPQQQQQQQQAALPQMPLFENFYSMPQQPSQQPQDFGLQPAGPLGQSHLAHHSMAPYPFPPNPDMNPELRKALLQDSAPQPALPQVQIPFPRRSRRLSKEGILPPSALDGAGTQPGQEATGNLFLHHWPLQQPPPGSLGQPHPEALGFPLELRESQLLPDGERLAPNGREREAPAMGSEEGMRAVSTGDCGQVLRGGVIQSTRRRRRASQEANLLTLAQKAVELASLQNAKDGSGSEEKRKSVLASTTKCGVEFSEPSLATKRAREDSGMVPLIIPVSVPVRTVDPTEAAQAGGLDEDGKGPEQNPAEHKPSVIVTRRRSTRIPGTDAQAQAEDMNVKLEGEPSVRKPKQRPRPEPLIIPTKAGTFIAPPVYSNITPYQSHLRSPVRLADHPSERSFELPPYTPPPILSPVREGSGLYFNAIISTSTIPAPPPITPKSAHRTLLRTNSAEVTPPVLSVMGEATPVSIEPRINVGSRFQAEIPLMRDRALAAADPHKADLVWQPWEDLESSREKQRQVEDLLTAACSSIFPGAGTNQELALHCLHESRGDILETLNKLLLKKPLRPHNHPLATYHYTGSDQWKMAERKLFNKGIAIYKKDFFLVQKLIQTKTVAQCVEFYYTYKKQVKIGRNGTLTFGDVDTSDEKSAQEEVEVDIKTSQKFPRVPLPRRESPSEERLEPKREVKEPRKEGEEEVPEIQEKEEQEEGRERSRRAAAVKATQTLQANESASDILILRSHESNAPGSAGGQASEKPREGTGKSRRALPFSEKKKKTETFSKTQNQENTFPCKKCGR
Q: How did the binding turn out when B1 was run?
A: binds

Results are given in words; binding and its absence hold for the method and conditions named. Binding seen in cells or lysates may run through a third protein. These calls come from enrichment with a bait or labelling near it, and not all partners need be listed.
